In article PMC10830484:
Where a chain is given by its changes, count along the chain named. Results are given in words; binding and its absence hold for the method and conditions named. For some of these results: In cells and extracts the contact can be indirect. Some results given as binding are weak or reduced against the parent protein; the word gives no strength. Sequences can lack the tags named with a protein.

Sequences of proteins named here, by UniProt entry; tags and fusion partners are left off.
UniProt Q92930: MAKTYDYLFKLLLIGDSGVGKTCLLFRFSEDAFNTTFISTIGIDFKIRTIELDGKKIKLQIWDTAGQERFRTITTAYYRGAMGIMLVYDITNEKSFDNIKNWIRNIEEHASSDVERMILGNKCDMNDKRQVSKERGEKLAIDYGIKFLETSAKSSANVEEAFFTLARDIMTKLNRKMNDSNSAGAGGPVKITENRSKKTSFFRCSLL
UniProt P62491: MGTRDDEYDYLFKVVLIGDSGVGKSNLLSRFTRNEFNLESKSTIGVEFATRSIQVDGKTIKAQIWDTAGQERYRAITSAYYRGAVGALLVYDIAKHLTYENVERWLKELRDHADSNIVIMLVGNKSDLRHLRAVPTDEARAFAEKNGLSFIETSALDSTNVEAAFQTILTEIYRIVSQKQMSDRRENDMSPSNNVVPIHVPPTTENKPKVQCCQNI
UniProt P61006: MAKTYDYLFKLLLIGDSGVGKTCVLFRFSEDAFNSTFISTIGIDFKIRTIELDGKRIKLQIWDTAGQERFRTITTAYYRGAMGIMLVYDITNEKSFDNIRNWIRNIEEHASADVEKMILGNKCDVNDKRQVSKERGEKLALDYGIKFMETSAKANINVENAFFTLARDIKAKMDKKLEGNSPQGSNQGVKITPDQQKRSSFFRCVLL
UniProt Q96NA2: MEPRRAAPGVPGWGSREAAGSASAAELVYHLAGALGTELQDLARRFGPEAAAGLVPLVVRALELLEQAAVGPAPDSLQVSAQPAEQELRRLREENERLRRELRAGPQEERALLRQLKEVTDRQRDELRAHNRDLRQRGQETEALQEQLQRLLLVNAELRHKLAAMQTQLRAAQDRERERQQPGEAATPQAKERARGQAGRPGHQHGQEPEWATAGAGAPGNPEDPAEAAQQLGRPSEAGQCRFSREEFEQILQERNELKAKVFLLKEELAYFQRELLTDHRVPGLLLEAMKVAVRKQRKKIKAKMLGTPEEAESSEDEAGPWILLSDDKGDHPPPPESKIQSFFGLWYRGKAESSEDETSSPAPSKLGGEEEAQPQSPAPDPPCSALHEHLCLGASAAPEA

T1: GST-Rab34-T66N (UniProt Q9BZG1)
T1 sequence: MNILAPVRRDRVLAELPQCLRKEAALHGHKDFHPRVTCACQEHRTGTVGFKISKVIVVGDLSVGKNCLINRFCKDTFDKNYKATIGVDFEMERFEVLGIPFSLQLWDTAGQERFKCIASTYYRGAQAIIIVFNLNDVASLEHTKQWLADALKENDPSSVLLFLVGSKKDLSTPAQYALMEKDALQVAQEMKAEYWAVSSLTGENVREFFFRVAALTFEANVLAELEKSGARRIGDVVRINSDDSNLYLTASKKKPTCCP

T2: mito-mScarlet-DENND6A (human) (UniProt Q8IWF6)
T2 sequence: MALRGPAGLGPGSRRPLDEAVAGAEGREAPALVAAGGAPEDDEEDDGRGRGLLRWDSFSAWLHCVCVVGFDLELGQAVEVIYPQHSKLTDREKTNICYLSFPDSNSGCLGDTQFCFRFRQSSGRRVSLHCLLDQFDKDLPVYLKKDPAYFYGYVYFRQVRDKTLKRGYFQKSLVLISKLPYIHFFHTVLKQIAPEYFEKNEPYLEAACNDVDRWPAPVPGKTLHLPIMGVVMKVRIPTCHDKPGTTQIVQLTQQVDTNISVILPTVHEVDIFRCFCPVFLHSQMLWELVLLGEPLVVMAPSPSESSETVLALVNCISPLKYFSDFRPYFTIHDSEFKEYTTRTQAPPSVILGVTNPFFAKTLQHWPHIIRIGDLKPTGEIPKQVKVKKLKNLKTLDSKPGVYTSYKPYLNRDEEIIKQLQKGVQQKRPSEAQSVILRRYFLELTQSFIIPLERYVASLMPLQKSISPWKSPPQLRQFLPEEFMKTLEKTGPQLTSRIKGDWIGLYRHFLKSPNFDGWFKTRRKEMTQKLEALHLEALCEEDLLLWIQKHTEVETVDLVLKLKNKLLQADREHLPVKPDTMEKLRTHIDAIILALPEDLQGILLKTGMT

T3: DENND6A-GFP (human) (UniProt Q8IWF6)
T3 sequence: T2 sequence

B1: DENND6A-GFP (protein, UniProt Q8IWF6 1-608)
chain: T2 sequence
B2: GFP-Rab3B (protein, UniProt P20337 1-219)
chain: MASVTDGKTGVKDASDQNFDYMFKLLIIGNSSVGKTSFLFRYADDTFTPAFVSTVGIDFKVKTVYRHEKRVKLQIWDTAGQERYRTITTAYYRGAMGFILMYDITNEESFNAVQDWATQIKTYSWDNAQVILVGNKCDMEEERVVPTEKGQLLAEQLGFDFFEASAKENISVRQAFERLVDAICDKMSDSLDTDPSMLGSSKNTRLSDTPPLLQQNCSC
B3: GFP-Rab3C (protein, UniProt Q96E17 1-227)
chain: MRHEAPMQMASAQDARYGQKDSSDQNFDYMFKLLIIGNSSVGKTSFLFRYADDSFTSAFVSTVGIDFKVKTVFKNEKRIKLQIWDTAGQERYRTITTAYYRGAMGFILMYDITNEESFNAVQDWSTQIKTYSWDNAQVILVGNKCDMEDERVISTERGQHLGEQLGFEFFETSAKDNINVKQTFERLVDIICDKMSESLETDPAITAAKQNTRLKETPPPPQPNCAC
B4: GFP-Rab3D (protein, UniProt O95716 1-219)
chain: MASAGDTQAGPRDAADQNFDYMFKLLLIGNSSVGKTSFLFRYADDSFTPAFVSTVGIDFKVKTVYRHDKRIKLQIWDTAGQERYRTITTAYYRGAMGFLLMYDIANQESFAAVQDWATQIKTYSWDNAQVILVGNKCDLEDERVVPAEDGRRLADDLGFEFFEASAKENINVKQVFERLVDVICEKMNESLEPSSSSGSNGKGPAVGDAPAPQPSSCSC
B5: GFP-Rab4B (protein, UniProt P61018 1-213)
chain: MAETYDFLFKFLVIGSAGTGKSCLLHQFIENKFKQDSNHTIGVEFGSRVVNVGGKTVKLQIWDTAGQERFRSVTRSYYRGAAGALLVYDITSRETYNSLAAWLTDARTLASPNIVVILCGNKKDLDPEREVTFLEASRFAQENELMFLETSALTGENVEEAFLKCARTILNKIDSGELDPERMGSGIQYGDASLRQLRQPRSAQAVAPQPCGC
B6: GFP-Rab19 (protein, UniProt A4D1S5 1-217)
chain: MHFSSSARAADENFDYLFKIILIGDSNVGKTCVVQHFKSGVYTETQQNTIGVDFTVRSLDIDGKKVKMQVWDTAGQERFRTITQSYYRSAHAAIIAYDLTRRSTFESIPHWIHEIEKYGAANVVIMLIGNKCDLWEKRHVLFEDACTLAEKYGLLAVLETSAKESKNIEEVFVLMAKELIARNSLHLYGESALNGLPLDSSPVLMAQGPSEKTHCTC
B7: GFP-Rab22A (protein, UniProt Q9UL26 1-194)
chain: MALRELKVCLLGDTGVGKSSIVWRFVEDSFDPNINPTIGASFMTKTVQYQNELHKFLIWDTAGQERFRALAPMYYRGSAAAIIVYDITKEETFSTLKNWVKELRQHGPPNIVVAIAGNKCDLIDVREVMERDAKDYADSIHAIFVETSAKNAININELFIEISRRIPSTDANLPSGGKGFKLRRQPSEPKRSCC
B8: GFP-Rab22B (protein, UniProt Q13636 1-195)
chain: MMAIRELKVCLLGDTGVGKSSIVCRFVQDHFDHNISPTIGASFMTKTVPCGNELHKFLIWDTAGQERFHSLAPMYYRGSAAAVIVYDITKQDSFYTLKKWVKELKEHGPENIVMAIAGNKCDLSDIREVPLKDAKEYAESIGAIVVETSAKNAINIEELFQGISRQIPPLDPHENGNNGTIKVEKPTMQASRRCC
B9: GFP-Rab25 (protein, UniProt P57735 1-213)
chain: MGNGTEEDYNFVFKVVLIGESGVGKTNLLSRFTRNEFSHDSRTTIGVEFSTRTVMLGTAAVKAQIWDTAGLERYRAITSAYYRGAVGALLVFDLTKHQTYAVVERWLKELYDHAEATIVVMLVGNKSDLSQAREVPTEEARMFAENNGLLFLETSALDSTNVELAFETVLKEIFAKVSKQRQNSIRTNAITLGSAQAGQEPGPGEKRACCISL
B10: GFP-Rab30 (protein, UniProt Q15771 1-203)
chain: MSMEDYDFLFKIVLIGNAGVGKTCLVRRFTQGLFPPGQGATIGVDFMIKTVEINGEKVKLQIWDTAGQERFRSITQSYYRSANALILTYDITCEESFRCLPEWLREIEQYASNKVITVLVGNKIDLAERREVSQQRAEEFSEAQDMYYLETSAKESDNVEKLFLDLACRLISEARQNTLVNNVSSPLPGEGKSISYLTCCNFN
B11: GFP-Rab32 (protein, UniProt Q13637 1-225)
chain: MAGGGAGDPGLGAAAAPAPETREHLFKVLVIGELGVGKTSIIKRYVHQLFSQHYRATIGVDFALKVLNWDSRTLVRLQLWDIAGQERFGNMTRVYYKEAVGAFVVFDISRSSTFEAVLKWKSDLDSKVHLPNGSPIPAVLLANKCDQNKDSSQSPSQVDQFCKEHGFAGWFETSAKDNINIEEAARFLVEKILVNHQSFPNEENDVDKIKLDQETLRAENKSQCC
B12: GFP-Rab34 (protein, UniProt Q9BZG1 1-259)
chain: T1 sequence with N66T
B13: GFP-Rab39A (protein, UniProt Q14964 1-217)
chain: METIWIYQFRLIVIGDSTVGKSCLLHRFTQGRFPGLRSPACDPTVGVDFFSRLLEIEPGKRIKLQLWDTAGQERFRSITRSYYRNSVGGFLVFDITNRRSFEHVKDWLEEAKMYVQPFRIVFLLVGHKCDLASQRQVTREEAEKLSADCGMKYIETSAKDATNVEESFTILTRDIYELIKKGEICIQDGWEGVKSGFVPNTVHSSEEAVKPRKECFC
B14: GFP-Rab43 (protein, UniProt Q86YS6 1-212)
chain: MAGPGPGPGDPDEQYDFLFKLVLVGDASVGKTCVVQRFKTGAFSERQGSTIGVDFTMKTLEIQGKRVKLQIWDTAGQERFRTITQSYYRSANGAILAYDITKRSSFLSVPHWIEDVRKYAGSNIVQLLIGNKSDLSELREVSLAEAQSLAEHYDILCAIETSAKDSSNVEEAFLRVATELIMRHGGPLFSEKSPDHIQLNSKDIGEGWGCGC
B15: Rab34 (protein, UniProt Q9BZG1 1-259)
chain: T1 sequence with N66T

biological target: T1, GST-Rab34-T66N; experiment: pull-down; GST fusion proteins precoupled to glutathione-Sepharose beads, incubated with lysates of HEK-293T cells expressing DENND6A-GFP for 1 hour at 4 °C; 20 mM Hepes, 100 mM NaCl, 20 mM MgCl2, 1 mM dithiothreitol, 1% Triton X-100, pH 7.4; immunoblot with anti-GFP; only the target purified

Molecule | binding
B1 | binds

biological target: T2, mito-mScarlet-DENND6A (human); experiment: recruitment to mitochondria in cells (imaging); HeLa cells cotransfected with individual GFP-Rabs and mito-mScarlet-DENND6A or mito-mScarlet, fixed at 24 hours; localization of GFP-Rabs at the mitochondria judged by eye (Opera Phenix, hits confirmed on Leica SP8)

Molecule | binding
GFP-Rab8B (from UniProt Q92930 1-207) | binds
GFP-Rab11A (from UniProt P62491 1-216) | binds
GFP-Rab8A (from UniProt P61006 1-207) | binds
B2 | binds
B3 | binds
B4 | binds
B5 | binds
B6 | binds
B7 | binds
B8 | binds
B9 | binds
B10 | binds
B11 | binds
B12 | binds
B13 | binds
B14 | binds

biological target: T7-RILP (UniProt Q96NA2); experiment: pull-down; T7-RILP coupled to T7 tag antibody agarose beads, incubated with lysates of HEK-293T cells expressing DENND6A-GFP (or GFP) for 1 hour at 4 °C; 20 mM Hepes, 100 mM NaCl, 20 mM MgCl2, 1 mM dithiothreitol, 1% Triton X-100, pH 7.4; immunoblot with anti-GFP, anti-DIC, anti-Rab34; only the target …

Molecule | binding
B1 | binds
B15 | binds

biological target: T3, DENND6A-GFP (human); experiment: co-IP; co-immunoprecipitation with DENND6A (Supplementary Fig. 8)

Molecule | binding
dynactin (p150) (from UniProt Q14203-1 1-1278) | binds
RILP (from UniProt Q96NA2 1-401) | binds
B15 | binds
